Data: publication PMC7822819, “Discovery of a new class of integrin antibodies for fibrosis” (Scientific Reports, 2021)
Results are given in words; binding and its absence hold for the method and conditions named. Some entries that bind do so weakly or less than the wild type.

Sequences of proteins named here, by UniProt entry; tags and fusion partners are left off. A change or cut given only in a name is not applied to a line headed by its entry. Residues count along the entry.
UniProt P43406: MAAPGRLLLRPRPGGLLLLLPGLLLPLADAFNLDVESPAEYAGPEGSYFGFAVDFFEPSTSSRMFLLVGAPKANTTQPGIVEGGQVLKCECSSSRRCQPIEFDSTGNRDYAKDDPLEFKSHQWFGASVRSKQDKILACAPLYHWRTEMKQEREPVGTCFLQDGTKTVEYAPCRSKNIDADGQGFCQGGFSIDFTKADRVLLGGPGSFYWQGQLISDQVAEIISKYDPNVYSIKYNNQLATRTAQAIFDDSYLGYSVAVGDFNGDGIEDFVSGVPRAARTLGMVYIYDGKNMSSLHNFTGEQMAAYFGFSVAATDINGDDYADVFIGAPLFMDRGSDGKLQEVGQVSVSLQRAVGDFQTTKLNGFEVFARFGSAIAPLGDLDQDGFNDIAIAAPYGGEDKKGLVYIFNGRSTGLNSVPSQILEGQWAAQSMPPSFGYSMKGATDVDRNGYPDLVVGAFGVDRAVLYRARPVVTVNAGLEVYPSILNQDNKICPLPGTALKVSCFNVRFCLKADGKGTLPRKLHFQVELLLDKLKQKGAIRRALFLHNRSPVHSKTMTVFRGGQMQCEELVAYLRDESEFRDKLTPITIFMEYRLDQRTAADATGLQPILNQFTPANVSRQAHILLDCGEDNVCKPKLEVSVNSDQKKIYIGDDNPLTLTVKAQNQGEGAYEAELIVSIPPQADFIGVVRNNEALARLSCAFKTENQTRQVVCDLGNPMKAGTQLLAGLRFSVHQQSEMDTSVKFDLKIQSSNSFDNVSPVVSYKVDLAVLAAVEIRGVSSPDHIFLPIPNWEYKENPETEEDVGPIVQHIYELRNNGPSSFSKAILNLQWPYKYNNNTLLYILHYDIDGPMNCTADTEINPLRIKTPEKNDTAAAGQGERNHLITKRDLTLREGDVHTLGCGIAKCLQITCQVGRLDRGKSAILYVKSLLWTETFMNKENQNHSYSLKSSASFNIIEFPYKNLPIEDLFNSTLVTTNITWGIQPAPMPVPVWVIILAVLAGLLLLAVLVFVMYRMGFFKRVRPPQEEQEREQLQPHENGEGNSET
UniProt O54890: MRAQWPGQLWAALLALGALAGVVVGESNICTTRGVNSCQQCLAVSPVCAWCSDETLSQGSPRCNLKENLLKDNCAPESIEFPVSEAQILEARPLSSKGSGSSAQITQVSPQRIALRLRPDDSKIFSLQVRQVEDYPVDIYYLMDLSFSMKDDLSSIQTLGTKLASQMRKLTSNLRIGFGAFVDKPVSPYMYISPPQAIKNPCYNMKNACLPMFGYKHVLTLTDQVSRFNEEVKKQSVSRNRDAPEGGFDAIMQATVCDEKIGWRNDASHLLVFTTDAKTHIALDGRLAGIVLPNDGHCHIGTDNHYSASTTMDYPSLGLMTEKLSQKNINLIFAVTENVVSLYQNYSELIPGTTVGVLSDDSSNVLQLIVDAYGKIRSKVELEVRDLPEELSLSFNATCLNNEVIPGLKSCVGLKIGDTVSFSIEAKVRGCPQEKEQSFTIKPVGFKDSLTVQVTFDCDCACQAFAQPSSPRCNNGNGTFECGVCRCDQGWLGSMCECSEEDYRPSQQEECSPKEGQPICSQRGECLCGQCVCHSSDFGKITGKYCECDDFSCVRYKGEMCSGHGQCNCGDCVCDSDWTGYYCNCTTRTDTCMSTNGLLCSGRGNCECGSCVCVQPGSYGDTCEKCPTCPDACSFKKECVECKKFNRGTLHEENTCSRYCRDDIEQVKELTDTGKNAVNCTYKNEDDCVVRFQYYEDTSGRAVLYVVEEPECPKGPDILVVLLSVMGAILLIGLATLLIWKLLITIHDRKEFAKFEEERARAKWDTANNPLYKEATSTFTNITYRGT
UniProt P04004, residues 20-478: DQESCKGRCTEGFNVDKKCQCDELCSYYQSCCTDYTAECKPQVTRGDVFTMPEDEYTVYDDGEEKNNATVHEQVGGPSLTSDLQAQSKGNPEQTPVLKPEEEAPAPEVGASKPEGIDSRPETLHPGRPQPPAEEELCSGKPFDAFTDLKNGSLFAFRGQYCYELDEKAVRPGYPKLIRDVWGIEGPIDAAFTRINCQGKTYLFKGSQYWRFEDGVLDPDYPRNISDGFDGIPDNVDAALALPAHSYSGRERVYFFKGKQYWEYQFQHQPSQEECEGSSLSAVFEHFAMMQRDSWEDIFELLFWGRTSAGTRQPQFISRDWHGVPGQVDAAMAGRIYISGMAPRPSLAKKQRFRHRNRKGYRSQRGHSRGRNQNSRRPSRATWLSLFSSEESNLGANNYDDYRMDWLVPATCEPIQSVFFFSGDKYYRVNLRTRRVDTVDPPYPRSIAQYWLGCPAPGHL

Molecular target: recombinant mouse αvβ3 integrin, extracellular domains (mouse) (UniProt P43406+O54890)
Assay: AlphaScreen or HTRF; AlphaLISA integrin-ligand binding assay; recombinant integrin and its ligand with inhibitor, 2 h at room temperature; 25 mM HEPES pH 7.4, 137 mM NaCl, 1 mM MgCl2, 1 mM MnCl2, 2 mM CaCl2, 2.7 mM KCl, 0.05% Tween-20; concentrations in Supplemental Table S3; both purified

In the case of “vitronectin (ligand of the AlphaLISA integrin assays) (from UniProt P04004 20-478)”, the binding is reported as “binds”.
